# The shares of active, inactive and inconclusive entries below differ from those in the screen. Potencies of inconclusive entries are doubtful fits and often do not repeat. The source made the active and inactive calls. Calls come from the whole dose curve; as a rule, active = well fitted inhibition curve with a large enough effect; inconclusive = small, poorly fitted or top-dose-only effect; inactive = flat fitted curve, though single readings scatter.
# Amino acid sequences for entries named in this document (tags omitted).
# UniProt P08659, whole entry, looked up: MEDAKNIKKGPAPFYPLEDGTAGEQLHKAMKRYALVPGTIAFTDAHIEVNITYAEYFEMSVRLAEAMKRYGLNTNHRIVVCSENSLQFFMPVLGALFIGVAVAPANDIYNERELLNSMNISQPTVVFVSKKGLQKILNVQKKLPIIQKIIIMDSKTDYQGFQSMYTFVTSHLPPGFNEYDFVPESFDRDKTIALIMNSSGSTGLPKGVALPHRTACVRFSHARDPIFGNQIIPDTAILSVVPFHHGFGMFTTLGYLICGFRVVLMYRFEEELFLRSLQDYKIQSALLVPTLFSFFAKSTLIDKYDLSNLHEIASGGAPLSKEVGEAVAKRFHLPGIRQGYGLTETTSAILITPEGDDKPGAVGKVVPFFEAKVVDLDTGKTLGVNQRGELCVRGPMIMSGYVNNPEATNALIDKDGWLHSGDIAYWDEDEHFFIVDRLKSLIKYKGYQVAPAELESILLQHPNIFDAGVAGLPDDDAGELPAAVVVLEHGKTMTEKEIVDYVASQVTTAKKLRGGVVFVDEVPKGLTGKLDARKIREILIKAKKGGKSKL
# Target: Luciferin 4-monooxygenase (Photinus pyralis) (UniProt P08659)
# Assay: Counterscreen Assay for Enhancers of SMN2 Splice Variant Expression: Interaction with Luciferase Reporter for Probe SAR
# Details: purified firefly luciferase, luminescence inhibition; activity, negative = inhibition: at the top concentration
# From the text: NIH Chemical Genomics Center [NCGC] NIH Molecular Libraries Probe Production centers Network [MLPCN] MLPCN Grant: R03 MH084179-01 Assay Submitter (PI): Elliot Androphy NCGC Assay Overview: Spinal muscular atrophy (SMA) is caused by insufficient levels of the survival motor neuron protein SMN. The SMN locus on chromosome 5q13 contains two inverted copies of SMN called SMN1 and SMN2 which are 99% identical at the amino acid level. SMN1 is a fully functional protein and SMN2 skips exon 7 90% of the time. Skipping of exon 7 produces non-functional protein product. 10% of the SMN2 protein includes exon 7 and is fully functional. In the SMA disease state, mutations in the SMN1 locus are the cause of the disease state. Because only 10% of SMN2 is of the fully functional form, it is not sufficient to overcome the deficiency produced by the loss of the SMN1 product. A therapy that either increases the amount of SMN2 product made increases the inclusion of exon 7 has been proposed for the treatment of SMA. We have designed an assay to identify small molecules that can increase the amount of functional SMN2 product by appending a luciferase reporter gene after the native SMN2 gene, such that inclusion of exon 7 in the expressed product places the luciferase sequence in frame, thus generating functional luciferase enzyme. One potential source of false positives in the primary screening assay is stabilization of the reporter luciferase via direct binding. This assay attempts to identify such compounds by screening directly for luciferase activity in the absence of the cellular system.
# NCGC Assay Protocol Summary: The primary screen utilizes a luciferase reporter gene assay, combining the promoter and splicing based cassettes in tandem with the major portion of the native SMN1 cDNA, and then transfected into HEK293 cells. Compounds that modulate luciferase signal presumably modulate expression of […]. In this assay, we utilize purified firefly luciferase in lieu of a cellular reporter to identify compounds interacting directly with luciferase in the primary screen. Sequence, Parameter, Value, Description (1) Reagent, 2.5 uL, Enzyme in buffer (note A) (2) Compound, 23 nL, From stock solutions (3) Time, 5 minutes, Room temp (4) Reagent#2.5 ul, Luciferase detection reagent (note B) (5) Detector, 1 sec integrate, Luminescent read on Viewlux (note C) Sigma enzyme (1 mg) considered to be MW 61,000 diluted in 357 ul assay buffer to 50 uM stock. A - Enzyme and buffer consists of 50 mM Tris-acetate pH 7.6, 10 mM Mg acetate 0.05% BSA, 0.01% Tween and 5 nM firefly luciferase B - Detection reagent = britelite plus diluted 1:10 in PBS C - Viewlux settings were 1 second integration medium sensitivity Keywords: Spinal muscular atrophy, SMA, SMN2, high throughput screening, MLSMR, MLPCN, NIH Roadmap, qHTS and NCGC
Structure (SMILES),Potency,"activity, negative = inhibition"
NC(=O)C1CCN(c2nc(-c3ccc4occc(=O)c4c3)cs2)CC1,"inconclusive: 63.5 µM [inhibitor, partial curve]",
COc1ccc(-c2csc(N3CCC(C(N)=O)CC3)n2)cc1,"inconclusive: 89.7 µM [inhibitor, partial curve]",
CN(C)c1ccccc1-c1csc(N2CCC(C(N)=O)CC2)n1,,inactive: -14%
CC(=O)c1cccc(-c2csc(N3CCC(C(N)=O)CC3)n2)c1,"inconclusive: 50.5 µM [inhibitor, partial curve]",
CC(=O)c1ccc(-c2csc(N3CCC(C(N)=O)CC3)n2)cc1,"inconclusive: 101 µM [inhibitor, partial curve, poor fit]",
CS(=O)(=O)c1ccccc1-c1csc(N2CCC(C(N)=O)CC2)n1,,inactive: -16.9%
Cc1noc(C)c1-c1csc(N2CCC(C(N)=O)CC2)n1,,inactive: -12.3%
NC(=O)C1CCN(c2nc(-c3ccccc3-c3ccccc3)cs2)CC1,"inconclusive: 89.7 µM [inhibitor, partial curve]",
Brc1ccc(-c2csc(N3CCOCC3)n2)cc1,"inconclusive: 127 µM [inhibitor, partial curve]",
NC(=O)C1CCN(c2nc(-c3ccccc3Br)cs2)CC1,"inconclusive: 80 µM [inhibitor, partial curve]",
NC(=O)C1CCN(c2nc(-c3cccc(Cl)c3)cs2)CC1,"inconclusive: 56.6 µM [inhibitor, partial curve]",
Cn1ccc2cc(-c3csc(N4CCC(C(N)=O)CC4)n3)ccc21,active: 10.1 µM,
NC(=O)C1CCN(c2nc(-c3cccs3)cs2)CC1,"inconclusive: 71.3 µM [inhibitor, partial curve]",
NC(=O)C1CCN(c2nc(-c3ccccc3N)cs2)CC1,,inactive: -14%
NC(=O)C1CCN(c2nc(-c3cccc(N)c3)cs2)CC1,,inactive: -24.6%
CN(C)C(=O)c1cccc(-c2csc(N3CCC(C(N)=O)CC3)n2)c1,,inactive: -19.3%

# — PubChem BioAssay AID2515 (National Center for Advancing Translational Sciences (NCATS), 2010)
